This is one part of the list. Construct or isoform of the protein are uncertain.

The target in the assay is T1, ELF2 (UniProt Q15723).
T1 sequence: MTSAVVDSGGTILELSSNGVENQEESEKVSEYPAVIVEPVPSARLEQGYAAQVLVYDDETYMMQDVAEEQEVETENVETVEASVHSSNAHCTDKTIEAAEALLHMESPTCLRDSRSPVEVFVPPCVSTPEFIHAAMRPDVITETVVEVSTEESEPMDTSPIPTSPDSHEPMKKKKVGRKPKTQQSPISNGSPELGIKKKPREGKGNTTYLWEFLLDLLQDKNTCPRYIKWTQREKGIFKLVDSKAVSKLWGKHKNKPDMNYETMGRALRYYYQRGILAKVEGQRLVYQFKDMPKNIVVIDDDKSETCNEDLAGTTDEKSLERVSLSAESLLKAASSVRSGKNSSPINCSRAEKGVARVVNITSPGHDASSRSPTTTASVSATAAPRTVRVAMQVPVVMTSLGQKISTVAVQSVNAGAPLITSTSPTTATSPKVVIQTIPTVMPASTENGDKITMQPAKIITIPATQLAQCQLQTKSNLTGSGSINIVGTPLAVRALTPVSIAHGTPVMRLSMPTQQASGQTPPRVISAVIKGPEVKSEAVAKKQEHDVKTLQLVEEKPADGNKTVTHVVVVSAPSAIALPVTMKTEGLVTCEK
The experiment in a line: DAPPL (digital affinity profiling via proximity ligation, sequencing). As to conditions: 10 mM Tris-HCl pH 7.5, 50 mM NaCl, 1 mM DTT, 4% glycerol, room temperature, 30 min; GST-TFs on glutathione beads, 16-mer random dsDNA library, 0.1% …; high values mean tight binding; double strand, one strand shown; scale: fold enrichment (6-mer frequency, TF over GST control).
For the sequence AACAAA, the binding signal amounted to 1.18. The sequence TTCATA came in with a binding signal of 1.14. In turn, CTTTTA gave a binding signal of 1.25. GATGGT gave a binding signal of 1.13. As to GTTCCA, the binding signal is 1.03. Take TCCCCT: the binding signal is 1.58. AATTTA came in with a binding signal of 1.27. Sequence GTTTAA gave a binding signal of 1.13.

CCAAAA had a binding signal of 1.13.

The sequence GCTCAA registered a binding signal of 1.02. On to GCACTT, for which the binding signal is 2.1.

In turn, AACAGC registered a binding signal of 1.08. For TCGACA the value was 1.23; for AATTCA, 1.31; for ATTTAT, 1.42.

With CATATT, the binding signal is 1.23. The figure for TTTGAA is 1.16. With AAACAT, the binding signal was 1.45. For ATGTAC the value was 1.28. The figure for CTTGCC is 1.22; for CAATTG it is 1.17; for CAAATA it is 1.14.

TCCGAC registered a binding signal of 1.45. The figure for ATGGCC is 1.28.

The sequence ATGACG gave a binding signal of 1.27. CCATTG registered a binding signal of 1.12. On to CTTTCA, for which the binding signal was 1.29. TTCTTT showed a binding signal of 1.24. The figure for ATTGCG is 1.21; for TAATGC it is 1.18.

In turn, ATTTAC showed a binding signal of 1.24. Sequence CTATAT yielded a binding signal of 1.46. TAGGCT: the binding signal was 1.18. For CTAATG, the binding signal was 1.21. GCTATA: the binding signal amounted to 1.08. For CTTGGG the value was 1.13; for CGTCCC, 1.22.

GCATTC displayed a binding signal of 1.09. Sequence TATTTC came in with a binding signal of 2.69.

The values above are taken from PMC7862700.
